PubChem BioAssay AID504774, Drosophila RNAi Screening Center | 2011
Purpose: 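Knock-downs that shift viability of MMS-exposed cells relative to untreated ones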 (primary screen). Cells: Drosophila Kc167 cells. Reagents: long dsRNA against Drosophila genes, about 0.25 µg dsRNA per well. Duration: about 6 days: 3 days knock-down, then 3 days with or without MMS. Challenge: methyl methanesulphonate 0.004% (w/v) for 3 days after knock-down. Detection: 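Viability in wells given MMS, read as ATP luminescence, normalised by quantiles plate by plate and averaged across replicates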. Reading the numbers: mean viability with MMS: higher = more surviving cells after MMS.
The deposit covers about 23,000 reagents; this is a random part of those that have a named target and a result. 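Values are quantile-normalised luminescence on an arbitrary scale; higher means more cells surviving MMS.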 Names joined by + are all predicted targets of the reagent. Not all columns of the deposit are shown.

mean viability with MMS, by target gene and reagent
Ptp10D (GeneID 32115): DRSC20272 3.54e6
Ankle2 (GeneID 32732): DRSC20105 3.85e6; DRSC20106 3.52e6
CG13707 (GeneID 38583): DRSC08316 3.63e6
halo (GeneID 33334): DRSC00705 3.51e6
CG3687 (GeneID 36803): DRSC06850 3.59e6
Ugt303B3 (GeneID 42774): DRSC14199 3.55e6
CG31789 (GeneID 318943): DRSC01645 3.49e6
sunz (GeneID 40811): DRSC12559 3.66e6
Alp9 (GeneID 38633): DRSC10486 3.56e6
CG30412 (GeneID 37691): DRSC04564 3.63e6
CG14020 (GeneID 33771): DRSC02350 3.50e6
meep (GeneID 261663): DRSC07948 3.49e6
blp (GeneID 41937): DRSC15757 3.41e6
CG14683 (GeneID 41278): DRSC17035 3.38e6
CG32700 (GeneID 31896): DRSC17857 3.62e6; DRSC17858 3.42e6
Tsp86D (GeneID 41310): DRSC15607 3.57e6
Tsp42Ea (GeneID 59178): DRSC04982 3.64e6; DRSC06792 3.67e6
AhcyL1 (GeneID 38342): DRSC08647 3.60e6
Osi1 (GeneID 40752): DRSC12271 3.67e6
CG8958 (GeneID 32575): DRSC20134 3.48e6
Pgant7 (GeneID 32836): DRSC19991 3.57e6
Mau2 (GeneID 41830): DRSC15550 3.55e6
Trm1 (GeneID 34656): DRSC02951 3.63e6
kmr (GeneID 5740131): DRSC12986 3.72e6; DRSC14827 3.59e6; DRSC14828 3.43e6; DRSC16472 3.51e6
CG42561 (GeneID 8674029): DRSC05676 3.52e6
Mal-A2 (GeneID 35825): DRSC07460 3.65e6
CG31832 (GeneID 318970): DRSC22067 3.81e6
Cyp12e1 (GeneID 41272): DRSC16622 3.50e6
Baldspot (GeneID 39860): DRSC09671 3.79e6
CG13202 (GeneID 36222): DRSC06326 3.55e6
CG42613 (GeneID 42269): DRSC13332 3.39e6; DRSC14769 3.54e6; DRSC15802 3.89e6
Gr93b (GeneID 117472): DRSC22063 3.64e6
gem (GeneID 36064): DRSC06093 3.83e6; DRSC06847 3.49e6
CG14837 (GeneID 38849): DRSC10207 3.51e6
CG32302 (GeneID 38293): DRSC08340 3.57e6
CG31415 (GeneID 318722): DRSC22409 3.58e6
dpy (GeneID 318824): DRSC00233 3.51e6; DRSC00234 3.40e6; DRSC00472 3.70e6
MESK2 + CG10494: DRSC04259 3.46e6
lin (GeneID 45325): DRSC07644 3.59e6
CG33463 (GeneID 2768844): DRSC22915 3.55e6
CR30068 (retired record) (GeneID 3771873): DRSC05477 3.44e6
Cyp6a13 (GeneID 35837): DRSC07375 3.50e6
Cyp6d5 (GeneID 41706): DRSC16634 3.70e6
Pcif1 (GeneID 40295): DRSC11655 3.46e6
CG4553 (GeneID 43078): DRSC15595 3.27e6
NimC3 (GeneID 48772): DRSC03556 3.71e6; DRSC22528 3.34e6
Vha16-1 (GeneID 44307): DRSC05020 3.46e6
bma (GeneID 5740442): DRSC09896 3.54e6; DRSC10164 3.72e6
RASSF8 (GeneID 43096): DRSC15707 3.68e6
CG10916 (GeneID 37081): DRSC06012 3.58e6
cora (GeneID 37205): DRSC07597 3.35e6
CG16790 (GeneID 41155): DRSC15156 3.65e6
Adat1 (GeneID 34787): DRSC03479 3.50e6
CG18599 (GeneID 42191): DRSC15357 3.53e6; DRSC22585 2.42e6; DRSC23121 3.58e6

Sorted by “mean viability with MMS” (high to low): 5 of the entries above
target gene	DRSC id	mean viability with MMS
dpy (GeneID 318824)	DRSC00472	3.70e6
lin (GeneID 45325)	DRSC07644	3.59e6
CG33463 (GeneID 2768844)	DRSC22915	3.55e6
MESK2 + CG10494	DRSC04259	3.46e6
CR30068 (retired record) (GeneID 3771873)	DRSC05477	3.44e6
